# PubChem BioAssay AID1671190 (National Center for Advancing Translational Sciences (NCATS), 2021)
# By UniProt entry, the sequences of proteins in these tests, tags left out.
# UniProt P18054, whole entry, looked up: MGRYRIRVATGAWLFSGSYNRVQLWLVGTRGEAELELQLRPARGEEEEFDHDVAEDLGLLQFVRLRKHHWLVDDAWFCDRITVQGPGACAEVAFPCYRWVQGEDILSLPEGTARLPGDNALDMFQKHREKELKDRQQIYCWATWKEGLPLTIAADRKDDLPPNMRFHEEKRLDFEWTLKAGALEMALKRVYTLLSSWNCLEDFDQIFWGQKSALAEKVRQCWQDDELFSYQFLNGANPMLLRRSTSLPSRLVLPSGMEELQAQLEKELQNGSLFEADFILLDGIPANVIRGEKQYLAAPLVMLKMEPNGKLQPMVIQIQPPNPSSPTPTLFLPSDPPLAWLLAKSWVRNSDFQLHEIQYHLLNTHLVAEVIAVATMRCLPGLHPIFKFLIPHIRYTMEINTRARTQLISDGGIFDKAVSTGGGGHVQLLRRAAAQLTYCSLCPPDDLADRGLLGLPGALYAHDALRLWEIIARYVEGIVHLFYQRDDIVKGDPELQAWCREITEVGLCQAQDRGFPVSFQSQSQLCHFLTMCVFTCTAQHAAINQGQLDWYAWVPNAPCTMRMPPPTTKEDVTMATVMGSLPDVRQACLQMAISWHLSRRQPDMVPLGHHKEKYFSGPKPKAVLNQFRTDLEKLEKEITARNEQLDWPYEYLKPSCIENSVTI
# Among all 580,000 compounds or so, about 6,100 (1.1%) were called active. This list was built around the results that the source calls inconclusive (neither active nor inactive); the mix of calls is not that of the screen. Calls follow the shape of the dose curve; as a rule, active = well fitted inhibition curve with a large enough effect; inconclusive = small, poorly fitted or top-dose-only effect, or another doubt; inactive = no such curve, though single readings can be large or run the other way. Potencies beside an inconclusive call are fits to weak or partial responses and may not hold up.
# Molecular target: Polyunsaturated fatty acid lipoxygenase ALOX12 (Homo sapiens) (UniProt P18054)
# Test: Primary qHTS assay for inhibitors of human arachidonate 12S-lipoxygenase (ALOX12): Round 2
# Settings: purified 12hLO, xylenol orange hydroperoxide absorbance; activity change, negative = inhibition: at 108 µM (top of the series) unless noted
# In short: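 Purified human 12hLO (150 nM final) in 25 mM Hepes, 0.01% Triton X-100, pH 7.0 was preincubated 15 min at room temperature with compound. Then 40 uM arachidonic acid was added, 30 min. Hydroperoxide was read by Fe-XO absorbance ratio 573/405 nm.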
# % is scaled to controls: 0 for no effect and ±100 for the full control effect; potency is read from the fitted curve at half-maximal effect.
Compound,Potency,"activity change, negative = inhibition"
O=S(=O)(Nc1cccc2c1CCCC2)c1ccc(Cl)cc1,"inconclusive: 17.8 µM [inhibitor, full curve]",
CC1CCCN(c2ncnc3c2CN(C2CCCNCC2)C(=O)CN3C)C1 (stereo not drawn),"inconclusive: 7.08 µM [inhibitor, full curve]",
CC(=O)Nc1cc(C(=O)NCc2ccc(F)cc2)ccc1Sc1ccc(F)cc1,"inconclusive: 4.47 µM [inhibitor, full curve, poor fit]",
C=CCO/N=C/C1=C(O)C(C(=O)OC)C(C)(C)CC1=O (stereo not drawn),"inconclusive: 3.55 µM [inhibitor, full curve]",
CCNC(=O)N(C1CC1)C1CCOC2(CCN(C(=O)c3ocnc3C)CC2)C1 (stereo not drawn),inactive,
Cc1nc2ccccc2c(Cl)c1C/C=C/Cl,inactive,
CCN1CCN(c2nc3c(c(=O)n(C)c(=O)n3C)n2CC(N)=O)CC1,inactive,
COc1ccc(NC(=O)N[C@H]2[C@H](O)[C@@H](N3CCN(c4ccccc4OC)CC3)[C@@H]3OC[C@H]2O3)cc1,"inconclusive: 79.4 µM [inhibitor, partial curve, poor fit]",
Cc1ccc(C)c(-n2ccnc2SCC(=O)Nc2cccc(S(=O)(=O)NC3=NCCC3)c2)c1,"inconclusive: 44.7 µM [inhibitor, partial curve, poor fit]",
COCCCn1cc(CN2CC(N3CCN(Cc4ccccc4F)CC3)CS2(=O)=O)nn1 (stereo not drawn),"inconclusive: 35.5 µM [inhibitor, partial curve]",
CCN1CC(CN(C)C(=O)c2nn(Cc3ccccc3)c(=O)c3ccccc23)Oc2ccccc21 (stereo not drawn),"inconclusive: 44.7 µM [inhibitor, single point]",
O=C(O)CC12CC3CC(C1)CC(C(=O)O)(C3)C2,inactive,
O=C(NCCc1ccccc1)N1c2ccccc2Sc2ccccc21,inactive,
Cc1c(NC(=O)c2cc3cc(Br)ccc3[nH]2)c(=O)n(-c2ccccc2)n1C,active: 50.1 µM,
Cc1c(N=C2C=C(Br)C(=O)C(Br)=C2)c(=O)n(-c2ccccc2)n1C,"inconclusive: 44.7 µM [inhibitor, partial curve, poor fit]",
CC(Sc1nc(C(C)(C)C)cc(-c2ccccc2)c1C#N)C(=O)Nc1ccccc1 (stereo not drawn),"inconclusive: 126 µM [inhibitor, partial curve, poor fit]",
Cc1ccc(S(=O)(=O)Nc2nnc(CC(C)(C)C)s2)cc1,inactive,
O[C@H]1C[C@H](c2ccc(Cl)cc2)N(Cc2cccs2)C[C@@H]1n1cc(-c2ccc(F)cc2)nn1,active: 35.5 µM,
CC(C)(C)NCCOCCOc1ccc(Cl)cc1C(C)(C)C,"inconclusive: 7.94 µM [inhibitor, full curve, poor fit]",
O=c1cc(CN2CCN(S(=O)(=O)c3ccc(Cl)cc3)CC2)c2cc(Cl)c(O)cc2o1,"inconclusive: 44.7 µM [inhibitor, partial curve, poor fit]",
Cc1cccc(OCc2nc(C#N)c(NCCN(C)C)o2)c1,"inconclusive: 25.1 µM [inhibitor, partial curve, poor fit]",

Compound,Potency,"activity change, negative = inhibition"
COCCn1c(SCc2nc(C(C)(C)C)no2)nc2sc(C)c(C)c2c1=O,inactive,
CCc1cccc(CC)c1NC(=O)CC(C#N)(C(C)=O)c1c(Cl)cccc1Cl (stereo not drawn),"inconclusive: 112 µM [inhibitor, single point]",
O=C(CCN1CCN(c2ccccc2)CC1)NNC(=O)Cc1c(F)cccc1Cl,"inconclusive: 89.1 µM [inhibitor, single point]",
COc1ccccc1C(=O)Nc1nc2n(n1)C(c1ccc(F)cc1)C=C(c1ccc(Cl)cc1)N2 (stereo not drawn),inactive,
Cc1cccc(CN2CCC(CNC(=O)Cn3ncc4c([nH]c5ccc(C)cc54)c3=O)CC2)c1,"inconclusive: 158 µM [inhibitor, partial curve, poor fit]",
CCCNC(=O)C1(C)CCN(C(=O)COCc2ccccc2)C1 (stereo not drawn),"inconclusive: 141 µM [inhibitor, partial curve, poor fit]",
CCOC(=O)c1c(NC(=O)COC(=O)Cc2ccccc2[N+](=O)[O-])sc(C(=O)N(C)C)c1C,inactive,
CCOC(=O)C1=CN(Cc2cccc(-c3ccc4c(c3)OCO4)c2)S(=O)(=O)N(C)C1C (stereo not drawn),inactive,
CCc1ccc(C(=O)NCc2ccco2)cc1,"inconclusive: 11.2 µM [inhibitor, full curve, poor fit]",
Cn1nc(C2CCCNC2)c2c(C(=O)NCC(F)(F)F)cc(C3CC3)nc21 (stereo not drawn),"inconclusive: 11.2 µM [inhibitor, full curve]",
CCn1nc(C(=O)OC(C(=O)NC(N)=O)C(C)C)c2ccccc2c1=O (stereo not drawn),inactive,
C[C@@H]1C(c2ccccc2)=NN(c2ccccc2)[C@H]1C(=O)N1CCOC1=O,"inconclusive: 89.1 µM [inhibitor, partial curve, poor fit]",
COc1cccc(CN2CCC3(Cc4ccccc4CNC3=O)C2)c1 (stereo not drawn),"inconclusive: 100 µM [inhibitor, partial curve, poor fit]",
C[C@@H]1CN([C@H](C)CO)C(=O)c2cc(NC(=O)c3ccncc3)ccc2O[C@@H]1CN(C)C(=O)Nc1ccccc1,"inconclusive: 50.1 µM [inhibitor, partial curve, poor fit]",
COc1ccc(C2(C)NC(=O)N(CC(=O)Nc3ccc4ccccc4c3)C2=O)cc1OC (stereo not drawn),"inconclusive: 126 µM [inhibitor, partial curve, poor fit]",
O=c1[nH]c(=S)[nH]c2c1[C@H](CCc1cccc(Cl)c1)O[C@H](C1CCCC1)C2,"inconclusive: 1 µM [inhibitor, partial curve, poor fit]",
Cc1cc(NC(=O)CSc2nnc(-c3ccccc3)o2)no1,inactive,
CCOC(=O)Cc1csc(NC(=O)CSc2nnnn2-c2ccc(C)cc2C)n1,"inconclusive: 50.1 µM [inhibitor, partial curve, poor fit]",
c1ccc(CC2CCN(c3ncnc4sccc34)CC2)cc1,inactive,
COc1ccc2c(c1)OCC(CNC(=O)CCc1ccccc1F)C2 (stereo not drawn),inactive,
CCOc1ccc(N2CC(C(=O)N3CC(C)OC(C)C3)CC2=O)cc1 (stereo not drawn),"inconclusive: 0.316 µM [inhibitor, full curve, poor fit]",

# Looked up by compound from the list above, 4 records:
Compound,Potency,"activity change, negative = inhibition"
COc1ccc(NC(=O)N[C@H]2[C@H](O)[C@@H](N3CCN(c4ccccc4OC)CC3)[C@@H]3OC[C@H]2O3)cc1,"inconclusive: 79.4 µM [inhibitor, partial curve, poor fit]",
CCn1nc(C(=O)OC(C(=O)NC(N)=O)C(C)C)c2ccccc2c1=O (stereo not drawn),inactive,
CCN1CC(CN(C)C(=O)c2nn(Cc3ccccc3)c(=O)c3ccccc23)Oc2ccccc21 (stereo not drawn),"inconclusive: 44.7 µM [inhibitor, single point]",
COCCn1c(SCc2nc(C(C)(C)C)no2)nc2sc(C)c(C)c2c1=O,inactive,

# Later entries:

Compound,Potency,"activity change, negative = inhibition"
CC1(CCl)N([O-])C2=C(CCCC2)[N+]1=O (stereo not drawn),"inconclusive: 15.8 µM [inhibitor, partial curve, poor fit]",
CCOC(=O)C1(Cc2ccccc2)CCN(CC2CC=CCC2)CC1 (stereo not drawn),inactive,
CC(C(=O)Nc1cc([N+](=O)[O-])ccc1Cl)N1CCN(c2ccc(O)cc2)CC1 (stereo not drawn),"inconclusive: 50.1 µM [inhibitor, partial curve, poor fit]",
CCOc1ccc(NC(=O)c2cccc(NC(C)=O)c2)cc1S(=O)(=O)N1CCCC1,"inconclusive: 89.1 µM [inhibitor, partial curve, poor fit]",
COc1ccccc1CC(=O)N1CCCc2cc(C)ccc21,"inconclusive: 50.1 µM [inhibitor, partial curve, poor fit]",
COc1cccc(C(=O)Nc2ccc(N3CCN(C(=O)c4cccs4)CC3)cc2)c1,"inconclusive: 158 µM [inhibitor, single point]",
CCNc1ncc2nc(CCc3ccccc3)c(=O)n(Cc3ccc(F)cc3)c2n1,"inconclusive: 28.2 µM [inhibitor, partial curve, poor fit]",
C[C@@H]1C[C@H](C)CN(C(C(=O)O)c2cn(Cc3ccccc3)c3cc(C(=O)O)ccc23)C1 (stereo partly drawn),"inconclusive: 50.1 µM [inhibitor, full curve, poor fit]",
COc1ccc(-c2nnc(C3CCN(S(=O)(=O)c4cccc(Cl)c4)CC3)o2)cc1,inactive,
O=C(N/N=C/c1cn[nH]c1-c1ccc(Cl)cc1)c1ccc([N+](=O)[O-])cc1,"inconclusive: 39.8 µM [inhibitor, partial curve, poor fit]",
c1ccc(CN2CCC(N=C3NN=C(c4ccc5c(c4)OCCO5)CS3)CC2)cc1,"inconclusive: 39.8 µM [inhibitor, partial curve]",
CC(=O)Nc1ccc(CN2CCOC[C@H]2c2ncc(-c3cccc(Cl)c3)[nH]2)cc1,"inconclusive: 89.1 µM [inhibitor, partial curve, poor fit]",
COc1cc(C(C)=O)ccc1OCC(=O)N(CCC1=CCCCC1)c1c(N)n(Cc2ccccc2)c(=O)[nH]c1=O,"inconclusive: 39.8 µM [inhibitor, partial curve, poor fit]",
Cc1nc(N2CCC(NC(=O)c3ccc4c(c3)OCO4)CC2)cc(C(F)(F)F)n1,"inconclusive: 22.4 µM [inhibitor, full curve]",
Oc1cc(NCc2ccc(F)cc2)cc2cccnc12,"inconclusive: 22.4 µM [inhibitor, partial curve]",
CC1=NS(=O)(=O)N(C)C=C1C(=O)OCc1nc(Cc2ccccc2C)no1,inactive,
O=C(COC(=O)c1ccc2ncsc2c1)NC(=O)c1ccccc1,"inconclusive: 44.7 µM [inhibitor, partial curve, poor fit]",
S=C(NCC1CCCO1)c1ccc(Br)cc1 (stereo not drawn),"inconclusive: 50.1 µM [inhibitor, partial curve, poor fit]",
COc1cc(OC)cc(-c2c(C#Cc3ccsc3)c3cc(-c4cccc5[nH]ccc45)ccc3n2C)c1,"inconclusive: 100 µM [inhibitor, partial curve, poor fit]",
O=C(Nc1sc2c(c1C(=O)NCC1CCCO1)CCCC2)c1cccs1 (stereo not drawn),inactive,
Cc1ccc(C(=O)N2CCN(c3ccc4c(c3)C3CC4CCN3C(=O)OCc3ccccc3)CC2)cc1 (stereo not drawn),,inconclusive: -32.9% [inhibitor]
